{
  "sequences": {"note": "Amino acid sequences for entries named in this document (tags omitted).", "UniProt P48436": "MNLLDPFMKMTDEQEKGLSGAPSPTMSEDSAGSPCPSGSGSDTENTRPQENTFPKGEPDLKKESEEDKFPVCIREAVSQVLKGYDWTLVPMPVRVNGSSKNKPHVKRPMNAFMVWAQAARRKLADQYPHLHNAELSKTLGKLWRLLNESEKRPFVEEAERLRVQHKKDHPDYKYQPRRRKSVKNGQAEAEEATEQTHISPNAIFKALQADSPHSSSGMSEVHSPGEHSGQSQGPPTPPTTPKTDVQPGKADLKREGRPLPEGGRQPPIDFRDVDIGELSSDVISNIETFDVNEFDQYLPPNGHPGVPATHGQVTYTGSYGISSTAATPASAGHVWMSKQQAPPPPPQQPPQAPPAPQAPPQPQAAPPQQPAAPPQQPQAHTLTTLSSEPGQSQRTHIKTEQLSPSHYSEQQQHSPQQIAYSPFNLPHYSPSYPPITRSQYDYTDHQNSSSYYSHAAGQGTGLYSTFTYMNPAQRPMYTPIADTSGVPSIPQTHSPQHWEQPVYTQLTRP", "UniProt P08047": "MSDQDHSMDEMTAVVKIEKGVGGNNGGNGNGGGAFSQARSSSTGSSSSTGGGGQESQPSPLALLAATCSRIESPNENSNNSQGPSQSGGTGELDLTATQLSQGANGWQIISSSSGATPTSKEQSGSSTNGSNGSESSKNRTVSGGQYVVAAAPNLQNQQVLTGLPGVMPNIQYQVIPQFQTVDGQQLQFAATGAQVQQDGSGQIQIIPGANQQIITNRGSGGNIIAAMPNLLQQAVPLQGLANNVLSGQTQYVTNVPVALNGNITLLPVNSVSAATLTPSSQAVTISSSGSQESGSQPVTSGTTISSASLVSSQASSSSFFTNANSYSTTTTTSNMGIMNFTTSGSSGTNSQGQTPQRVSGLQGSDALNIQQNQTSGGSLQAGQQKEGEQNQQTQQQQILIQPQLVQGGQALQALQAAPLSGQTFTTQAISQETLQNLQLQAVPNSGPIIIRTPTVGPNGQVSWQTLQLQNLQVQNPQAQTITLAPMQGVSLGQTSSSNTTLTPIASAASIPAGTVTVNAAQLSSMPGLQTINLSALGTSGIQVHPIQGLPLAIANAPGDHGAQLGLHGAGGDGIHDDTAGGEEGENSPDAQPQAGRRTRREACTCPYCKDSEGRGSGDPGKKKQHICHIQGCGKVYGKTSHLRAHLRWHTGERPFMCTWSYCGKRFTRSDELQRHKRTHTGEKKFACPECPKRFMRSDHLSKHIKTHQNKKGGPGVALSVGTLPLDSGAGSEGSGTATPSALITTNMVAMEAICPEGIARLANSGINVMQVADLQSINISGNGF"},
  "source": "paper PMC5058672",
  "molecular_target": "SOX9 (sex determining region Y [SRY]-related HMG-box 9) (human (endogenous in 526mel and 624mel)) (UniProt P48436)",
  "experiment": "co-IP; 5x10^6 526mel or 624mel cells cross-linked with DSP, lysed in RIPA buffer; anti-SOX9 or anti-vinculin antibody on Surebeads magnetic beads, lysate overnight at 4°C, washed with PBS-T; immunoblot for Sp1",
  "note": "No constants are given. Whether binding was seen depends on the method and setting. Binding seen in cells or lysates may run through a third protein. Some entries that bind do so weakly or less than the wild type.",
  "data": [
    {"substance": "Sp1 (from UniProt P08047 1-785)", "values": [
      {"measurement": "binding", "value": "binds"}
    ]}
  ]
}
